# Results of single-concentration screens

By UniProt entry, the sequences of proteins in these tests, tags left out. Residues count along the entry.
UniProt Q4DA54, 1-478: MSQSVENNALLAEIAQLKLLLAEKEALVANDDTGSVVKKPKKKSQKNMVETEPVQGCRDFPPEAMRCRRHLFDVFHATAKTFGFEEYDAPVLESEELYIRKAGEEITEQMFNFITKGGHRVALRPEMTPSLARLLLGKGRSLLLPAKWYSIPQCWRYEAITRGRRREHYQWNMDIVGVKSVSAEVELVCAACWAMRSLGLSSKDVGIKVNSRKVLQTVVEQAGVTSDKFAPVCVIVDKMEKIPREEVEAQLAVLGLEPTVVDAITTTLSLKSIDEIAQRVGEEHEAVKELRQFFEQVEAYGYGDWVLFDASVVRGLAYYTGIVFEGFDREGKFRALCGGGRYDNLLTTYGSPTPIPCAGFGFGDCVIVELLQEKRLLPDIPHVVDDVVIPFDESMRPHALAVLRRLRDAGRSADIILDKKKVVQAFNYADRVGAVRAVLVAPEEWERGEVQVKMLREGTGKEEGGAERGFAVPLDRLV
UniProt A4I591, 1-473: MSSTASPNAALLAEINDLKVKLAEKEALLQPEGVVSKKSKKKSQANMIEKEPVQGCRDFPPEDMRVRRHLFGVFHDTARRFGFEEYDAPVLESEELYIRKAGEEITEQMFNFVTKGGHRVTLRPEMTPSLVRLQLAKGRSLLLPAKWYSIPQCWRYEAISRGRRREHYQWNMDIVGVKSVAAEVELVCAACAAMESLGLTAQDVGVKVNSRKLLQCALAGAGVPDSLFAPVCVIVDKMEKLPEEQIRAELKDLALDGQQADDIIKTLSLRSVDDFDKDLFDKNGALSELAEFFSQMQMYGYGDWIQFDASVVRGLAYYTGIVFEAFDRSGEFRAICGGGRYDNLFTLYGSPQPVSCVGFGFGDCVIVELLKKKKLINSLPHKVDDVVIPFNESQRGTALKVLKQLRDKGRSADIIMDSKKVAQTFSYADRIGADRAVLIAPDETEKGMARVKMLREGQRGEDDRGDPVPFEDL

Measurements from “University of Dundee, Small-Polar-MMV Screening Library” (2021), ChEMBL document CHEMBL3988442.

T. brucei: 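Whole-parasite assay of Trypanosoma brucei over 72 hours; the read-out is not stated. Tested at 30 µM. Higher reads as stronger inhibition (inferred: compounds with an IC50 in retests scored well above the rest). Values scatter widely below zero; nearly all retest evidence comes from the higher of the two concentrations used. About 64,000 compounds were tested under these conditions; 1.5% (about 940) showed 50% or more at least once.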
TcHisRS: 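Enzyme assay of histidyl-tRNA synthetase; the read-out is not stated. Target: Histidine-tRNA ligase, Trypanosoma cruzi CL Brener (UniProt Q4DA54). Compounds at 30 µM. The record gives no direction; compounds that gave an IC50 in retests scored well above the rest, so higher reads as stronger inhibition. About 69,000 compounds were tested under these conditions; 0.045% (about 31) showed 50% or more at least once.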
LiHisRS: 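Enzyme assay of histidyl-tRNA synthetase; the read-out is not stated. Target: Histidine-tRNA ligase, Leishmania infantum (UniProt A4I591). Concentration: 30 µM. Higher reads as stronger inhibition (inferred: compounds with an IC50 in retests scored well above the rest). The assay is labelled LdHisRS but filed under L. infantum. Of about 69,000 compounds tested this way, about 410 (0.6%) reached 50% or more in at least one test.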

The filed quantity is “Percent Effect” (%). The record does not define 0% and 100%; most values in the screen are far below 50% and negative numbers occur (in some assays of this library far below -100). Compounds were drawn at random from those tested, without regard to their results. A dash means the value is not listed here; it may have been measured.

SMILES	T. brucei	TcHisRS	LiHisRS
O=C(c1ccco1)N1CC[C@H]2[C@H]1CC(=O)N2c1cccnc1	-	0	4
CC(C)N1CCC(CC(=O)NCCc2cc(O)ncn2)CC1	-73.12	4.938	13.73
CCn1ccnc1CN1CCCN(C(=O)c2cccc(C#N)c2)CC1	-23.55	-3.817	-19.15
Cn1ccnc1CN1CCCN(Cc2noc(C3CC3)n2)CC1	-	2.857	16.95
[H][C@]12CN(Cc3cccnc3OC)CC[C@@]1(O)CCN(C(=O)COC)C2	1.712	-	-
OC1(CN2CCC(Oc3cccc(C(F)(F)F)c3)CC2)CCNC1 (centres unmarked)	92	1.657	2.083
Cc1noc(C)c1C(=O)NCC(c1ccc(F)cc1)N(C)C (centres unmarked)	-1.082	0.3831	6.154
Cc1noc(C)c1-c1cc(CCC2CN(C(=O)C(C)C)CCO2)ncn1 (centres unmarked)	2.575	6.061	7.042
N#Cc1ccc(C(=O)NCC2(N3CCOCC3)CCCC2)nc1	-28.17	1.657	3.125
FC(F)(F)c1ccnc(N2CCCN(C3CCOCC3)CC2)c1	-3.152	2.941	10
CN(C)CCNc1cc(-c2ncccc2O)c2cc[nH]c2n1	-20.1	0	9.375
Cc1ccccc1-n1ccnc1S(=O)(=O)Cc1nsc(N(C)C)n1	-11.02	8.333	9.302
COc1ncc(-c2ccc(O)cc2)c(OC)n1	13.09	11.44	6.993
Cc1nonc1CN(C)Cc1nc(-c2cccc(F)c2F)oc1C	1.79	2.97	7.609
CCCc1noc(CN2CCCC2c2noc(C3CC3)n2)n1 (centres unmarked)	-16.45	6.686	9.649
O=C(O)C(F)(F)F.O=C(O)C(F)(F)F.[H][C@@]12CCCO[C@]1([H])[C@H](N(C)Cc1cncnc1)CN(Cc1ccco1)C2	26.4	-	-
CCCn1cnnc1CNC(=O)CC1C(=O)NCCN1CC(C)(C)C (centres unmarked)	-23.94	5.682	3.333
Cc1cnn(CC(=O)Nc2cc(-n3nnnc3C3CC3)ccc2F)c1	-47.06	5.419	19.74
c1ccc2nc(N3CCCC3)c(NCc3nnc4n3CCC4)nc2c1	-21.63	8.696	3.03
Cc1nc2c(C)cccc2cc1C(=O)N1CCC2(CCNCC2)CC1	6.671	9.756	27.71
Cc1cccc(CN2CCCCC23CCNC3)n1.O=C(O)C(F)(F)F.O=C(O)C(F)(F)F (centres unmarked)	-12.33	-	-
NC(=O)c1cccc(CCNC(=O)N2Cc3ccccc3C2)c1	3.847	-2.703	3.419
CC(C)C(=O)N1CCN(Cc2cnn(C)c2)CC2(CC(=O)N(C)C2)C1.O=C(O)C(F)(F)F (centres unmarked)	-18.08	-	-
Cn1cc(C(=O)NCC2CCN(C(=O)NC3CC3)CC2)cn1	11.31	1.433	17.54
Cn1cc(CNCCn2cccn2)c(-c2cccnc2)n1	-6.127	1.695	7.547
O=C1CO[C@H]2CN(S(=O)(=O)c3ccccc3)C[C@H]2N1c1ccccc1	-	8.911	25
O=C(O)C(F)(F)F.O=C(O)C(F)(F)F.[H][C@@]12CCCO[C@]1([H])[C@H](N1CCN(C)CC1)CN2C(=O)Cc1ccsc1	-14.2	-	-
O=C(O)C(F)(F)F.O=C(O)C(F)(F)F.[H][C@@]12COC[C@]1(CNS(=O)(=O)CC)CN(Cc1cccnc1)C2	-17.66	-	-
CC(C)(C)C1CC(=O)Nc2c1cnn2Cc1ccco1 (centres unmarked)	53.72	1.22	18.42
Cc1ncnc2c1CCN(CC(=O)N(C)C)CC2.O=C(O)C(F)(F)F	-76.05	-	-
CC(=O)c1cccc(OC(C)C(=O)Nc2cnn(CCN(C)C)c2)c1 (centres unmarked)	-14.6	1.19	6.202
c1cnn(CC2CN(Cc3nc(-c4ccoc4)no3)CCO2)c1 (centres unmarked)	-25.86	3.779	9.649
Cc1noc(C)c1CN1CC2(CCN(Cc3c[nH]cn3)CC2)CC1=O	-23.09	-19.28	15.29
Cl.Cn1nc(C2CCCN(Cc3cc(F)cc(F)c3)C2)c2nccnc21 (centres unmarked)	30.77	-	-
C[C@@H]1C[C@H]2CN(Cc3nccs3)C[C@H]2O1	-	6.135	10.26
O=C(CNC1(CCO)CCOCC1)Nc1ccc(F)cc1F	-33.18	-0.6061	8.889
COCC(=O)N1CCC2(CCC2NC(=O)c2ccn(C)c2)CC1 (centres unmarked)	-15.99	4.926	2.941
O=C(c1ccc(=O)[nH]n1)N(CCO)Cc1cc(Br)ccc1F	0.08775	11.34	18.68
COc1ccc(C[C@H]2CN(C(=O)c3ccncc3)CC[C@@H]2OC)cc1	-	2.256	4.878
[H][C@]12CCN(C(=O)NC(C)C)C[C@@]1([H])OCCN(S(C)(=O)=O)C2	-93.1	-	-
c1cnc(N2CCO[C@H]3[C@H](OCc4cccnc4)CC[C@@H]32)nc1	-	4	-9.735
Cc1ccc(CN2CCN(CC(=O)Nc3ccc4nsnc4c3)CC2)o1	11.14	3.627	16.85
CC(C)c1nnc2n1CCN(C(=O)c1ccc(OCC(N)=O)cc1)C2	5.075	1.887	18.67
COc1cc(C(=O)N2CCCC(c3cc(C)[nH]n3)C2)cc(OC)c1C (centres unmarked)	-7.766	8.43	13.16
Cc1noc(C)c1-c1nc(C2CCCN(C(=O)CCN)C2)ccc1CO (centres unmarked)	-9.73	6	10.74
NC(=O)NCC1CCCCN1C(=O)c1ccc(Br)s1 (centres unmarked)	7.162	5.82	14.71
COc1cc(C)c(S(=O)(=O)CC(=O)N(C)C(C)C)cc1OC	-23.88	-3.478	3.333
CN(c1ccc(OCc2cnc(Cl)s2)cc1)S(C)(=O)=O	-48.97	1.911	18.31
CCOC(=O)N(C)C1CCN(Cc2ccsc2)CC1	-12.77	4.04	4.762
[H][C@@]12OCCN(C(=O)c3cccc(C)n3)[C@@]1([H])CC[C@H]2OCCN(C)C	-38.21	-	-
Cn1ccc(C(=O)N2CCN(c3ccccn3)CC2)cc1=O	-6.437	8.14	12.5
CCN(C(=O)CN1CCCC1c1ccc(OC)cc1)c1ccccc1 (centres unmarked)	-27.65	1.19	13.33
Cc1cccc(CN2CCc3cc(C(=O)O)c(N(C)C)nc3CC2)n1	-	8.571	18.06
COc1cc(CNc2cc(N3CCCC3CO)ncn2)ccn1 (centres unmarked)	1.873	1.729	10.71
CS(=O)(=O)N1CCCC12CCCN(S(=O)(=O)c1ccc(F)c(F)c1)C2 (centres unmarked)	-24.81	2.804	-2.778
O=C(Cc1cn2ccccc2n1)N1CCCC(n2cccn2)C1 (centres unmarked)	-	2.564	-3.419
O=C(Nc1cnc(C2CC2)nc1)N1CCC(CN2CCCC2)C1 (centres unmarked)	-18.78	0	15.62
Cc1c(CN2CCCC2(C)C(=O)N2CCOCC2)cnn1C (centres unmarked)	-	10.15	7.092
O=C1[C@H]2CN(Cc3ccoc3)C[C@@H]2CCN1Cc1cccnc1	-	4.926	20.59
COc1cc(N2CCC3(CC2)CC(N2CCOCC2)C3)ncn1	-	-2.913	9.709
Cc1cc(C)c(N(CC(O)CNCc2ccco2)S(C)(=O)=O)c(C)c1 (centres unmarked)	-	12	26.09
Cc1nc(N2CCN(C)CC2)ncc1C(=O)N1CC(C)(C)C(C)(O)C1 (centres unmarked)	-19.76	3.39	-7.547
Cc1ccoc1C(=O)N1C[C@@H](OCC2CC2)[C@H]2OCCC[C@H]21	-	12	11.5
Cc1cc(F)ccc1NC(=O)Cn1cc(C(=O)O)ccc1=O	-12.3	2.273	21.67
CN(C)CCOCC1CN(Cc2cccs2)Cc2ccnn2C1.O=C(O)C(F)(F)F.O=C(O)C(F)(F)F.O=C(O)C(F)(F)F (centres unmarked)	10.14	-	-
COc1ccc(OC)c2c(C)cc(N(C)CCCO)nc12	-8.287	1.02	22.86

The first 8 entries again:

O=C(c1ccco1)N1CC[C@H]2[C@H]1CC(=O)N2c1cccnc1 read TcHisRS: 0%; LiHisRS: 4%.
CC(C)N1CCC(CC(=O)NCCc2cc(O)ncn2)CC1 read T. brucei: -73.12%; TcHisRS: 4.938%; LiHisRS: 13.73%.
CCn1ccnc1CN1CCCN(C(=O)c2cccc(C#N)c2)CC1 read T. brucei: -23.55%; TcHisRS: -3.817%; LiHisRS: -19.15%.
Cn1ccnc1CN1CCCN(Cc2noc(C3CC3)n2)CC1 read TcHisRS: 2.857%; LiHisRS: 16.95%.
[H][C@]12CN(Cc3cccnc3OC)CC[C@@]1(O)CCN(C(=O)COC)C2 read T. brucei: 1.712%.
OC1(CN2CCC(Oc3cccc(C(F)(F)F)c3)CC2)CCNC1 (centres unmarked) read T. brucei: 92%; TcHisRS: 1.657%; LiHisRS: 2.083%.
Cc1noc(C)c1C(=O)NCC(c1ccc(F)cc1)N(C)C (centres unmarked) read T. brucei: -1.082%; TcHisRS: 0.3831%; LiHisRS: 6.154%.
Cc1noc(C)c1-c1cc(CCC2CN(C(=O)C(C)C)CCO2)ncn1 (centres unmarked) read T. brucei: 2.575%; TcHisRS: 6.061%; LiHisRS: 7.042%.